Results as given in paper PMC11178496.
Results are given in words; binding and its absence hold for the method and conditions named. Binding seen in cells or lysates may run through a third protein. Some binding calls cover weakened binding; strength is not graded here.

The chains behind the UniProt entries cited, without tags or fusion partners.
UniProt Q9BQA1: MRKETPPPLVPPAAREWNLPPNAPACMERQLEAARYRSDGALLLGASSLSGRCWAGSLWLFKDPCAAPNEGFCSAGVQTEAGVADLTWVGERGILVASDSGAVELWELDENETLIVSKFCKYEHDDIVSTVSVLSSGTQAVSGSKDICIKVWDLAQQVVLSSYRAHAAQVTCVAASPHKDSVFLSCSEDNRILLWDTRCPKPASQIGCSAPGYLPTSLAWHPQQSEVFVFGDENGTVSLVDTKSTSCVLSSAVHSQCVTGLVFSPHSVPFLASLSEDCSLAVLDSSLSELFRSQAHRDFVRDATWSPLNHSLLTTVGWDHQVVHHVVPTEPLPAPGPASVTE
UniProt O14744: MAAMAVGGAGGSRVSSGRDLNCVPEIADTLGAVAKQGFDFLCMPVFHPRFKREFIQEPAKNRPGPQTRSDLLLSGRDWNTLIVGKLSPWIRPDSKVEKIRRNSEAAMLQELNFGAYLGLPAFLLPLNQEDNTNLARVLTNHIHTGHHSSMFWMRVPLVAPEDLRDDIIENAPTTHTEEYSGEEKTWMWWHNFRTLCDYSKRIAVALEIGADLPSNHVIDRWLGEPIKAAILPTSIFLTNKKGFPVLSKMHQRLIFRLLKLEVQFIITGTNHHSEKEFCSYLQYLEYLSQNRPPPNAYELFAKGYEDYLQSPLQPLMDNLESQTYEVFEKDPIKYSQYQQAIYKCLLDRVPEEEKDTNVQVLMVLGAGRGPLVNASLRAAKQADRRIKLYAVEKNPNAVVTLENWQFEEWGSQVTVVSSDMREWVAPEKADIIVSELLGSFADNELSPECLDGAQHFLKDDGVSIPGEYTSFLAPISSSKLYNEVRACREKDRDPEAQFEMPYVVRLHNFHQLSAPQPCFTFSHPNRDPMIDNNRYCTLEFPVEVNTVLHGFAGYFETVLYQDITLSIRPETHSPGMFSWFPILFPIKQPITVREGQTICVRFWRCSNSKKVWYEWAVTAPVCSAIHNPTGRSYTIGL
UniProt Q14790: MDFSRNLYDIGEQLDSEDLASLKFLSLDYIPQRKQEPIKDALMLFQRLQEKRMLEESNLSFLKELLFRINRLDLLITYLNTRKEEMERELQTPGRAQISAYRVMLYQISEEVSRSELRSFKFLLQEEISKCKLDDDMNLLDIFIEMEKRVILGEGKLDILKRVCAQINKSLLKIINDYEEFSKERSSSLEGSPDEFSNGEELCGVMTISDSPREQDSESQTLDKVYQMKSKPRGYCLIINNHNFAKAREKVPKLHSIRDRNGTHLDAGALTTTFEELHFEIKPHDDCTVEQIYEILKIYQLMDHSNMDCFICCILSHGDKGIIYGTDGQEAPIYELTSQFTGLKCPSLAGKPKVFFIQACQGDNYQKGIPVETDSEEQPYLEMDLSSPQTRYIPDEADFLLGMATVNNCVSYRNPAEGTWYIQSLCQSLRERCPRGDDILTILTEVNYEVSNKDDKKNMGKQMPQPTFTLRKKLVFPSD

Tests used:
[1] = target: MEP50/WD45/WDR77 (WD repeat-containing protein) (human (endogenous in SKW 6.4)) (UniProt Q9BQA1); assay: co-IP; WD45-IP, antibody added to the lysate, then Sepharose-A beads, six washes with PBS; Western Blot for procaspase-8
[2] = target: PRMT5 (human (endogenous in SKW 6.4)) (UniProt O14744); assay: co-IP; PRMT5-co-IP, antibody immobilised on Protein G sepharose beads (Pierce Co-Immunoprecipitation Kit); Western Blot for procaspase-8
[3] = target: Procaspase-8 (human (endogenous in SKW 6.4)) (UniProt Q14790); assay: co-IP; caspase-8-co-IP, antibody immobilised on Protein G sepharose beads (Pierce Co-Immunoprecipitation Kit); SKW 6.4 cells with or without CD95L stimulation; Western Blot

binding [1] | binding [2] | binding [3] | Substance
binds | binds | – | Procaspase-8 (from UniProt Q14790 1-479) (enzyme)
– | – | binds | PRMT5 (from UniProt O14744 1-637) (enzyme)
– | – | binds | MEP50/WD45/WDR77 (WD repeat-containing protein) (from UniProt Q9BQA1 1-342)
